Results published in patent US11872202B2, “Pleuromutilin cinnamic acid ester compounds with activities against antibiotic-resistant infections” (SHAANXI UNIVERSITY OF SCIENCE AND TECHNOLOGY, priority 2021, dated 2024).
Some of these results come from one statement about several compounds together.

Tests used:
Assay in all cases: MIC, micro-broth dilution method
Type in all cases: cell-based
[1] = system: Methicillin-resistant Staphylococcus aureus ATCC33591
Protocol: (§1) The minimum inhibitory concentration (MIC) of pleuromutilin cinnamate easters and their starting materials was tested by a micro-broth dilution method, with retamoline, vornimulin and tiamulin as positive controls.
(§2) The experimental strains included Gram-positive bacteria: Methicillin-sensitive Staphylococcus epidermidis ATCC12228, Staphylococcus aureus ATCC29213 and ATCC25923, and Methicillin-resistant Staphylococcus aureus ATCC33591; Gram-negative bacteria: Acinetobacter baumannii ATCC19606 and E. coli Bacillus ATCC25922 (the strains used were from the American type culture collection (ATCC)).

[2] = system: Methicillin-sensitive Staphylococcus epidermidis ATCC12228
Protocol: as §1, §2

[3] = system: Staphylococcus aureus ATCC25923; conditions: Staphylococcus aureus ATCC25293 as printed in text
Protocol: as §1, §2

[4] = system: Staphylococcus aureus ATCC29213
Protocol: as §1, §2

Row | SMILES | inhibition (in words) [1] | inhibition (in words) [2] | inhibition (in words) [3] | inhibition (in words) [4]
1 | C=C[C@]1(C)C[C@@H](OC(=O)COC(=O)/C=C/c2ccc([N+](=O)[O-])cc2)[C@]2(C)[C@H](C)CC[C@]3(CCC(=O)[C@H]32)[C@@H](C)[C@@H]1O [Compound 1, (E)-2-(((3aR,4R,5R,8S,9R,12R)-8-hydroxy-4,7,9,12-tetramethyl-3-oxo-7-vinyldecahydro-4,9a-propanocyclopenta[8]annulen-5-yl)oxy)-2-oxoethyl 3-(4-nitrophenyl)acrylate] | all had inhibitory effects | can inhibit | all had inhibitory effects | all had inhibitory effects
2 | C=C[C@]1(C)C[C@@H](OC(=O)COC(=O)/C=C/c2cccc(Cl)c2)[C@]2(C)[C@H](C)CC[C@]3(CCC(=O)[C@H]32)[C@@H](C)[C@@H]1O [Compound 2, (E)-2-(((3aR,4R,5R,8S,9R,12R)-8-hydroxy-4,7,9,12-tetramethyl-3-oxo-7-vinyldecahydro-4,9a-propanocyclopenta[8]annulen-5-yl)oxy)-2-oxoethyl 3-(3-chlorophenyl)acrylate] | all had inhibitory effects | can inhibit | all had inhibitory effects | all had inhibitory effects
3 | C=C[C@]1(C)C[C@@H](OC(=O)COC(=O)/C=C/c2ccccc2)[C@]2(C)[C@H](C)CC[C@]3(CCC(=O)[C@H]32)[C@@H](C)[C@@H]1O [Compound 3, 2-(((3aR,4R,5R,8S,9R,12R)-8-hydroxy-4,7,9,12-tetramethyl-3-oxo-7-vinyldecahydro-4,9a-propanocyclopenta[8]annulen-5-yl)oxy)-2-oxoethyl cinnamate] | all had inhibitory effects | can inhibit | all had inhibitory effects | all had inhibitory effects
4 | C=C[C@]1(C)C[C@@H](OC(=O)COC(=O)/C=C/c2ccc(OC)cc2)[C@]2(C)[C@H](C)CC[C@]3(CCC(=O)[C@H]32)[C@@H](C)[C@@H]1O [Compound 4, (E)-2-(((3aR,4R,5R,8S,9R,12R)-8-hydroxy-4,7,9,12-tetramethyl-3-oxo-7-vinyldecahydro-4,9a-propanocyclopenta[8]annulen-5-yl)oxy)-2-oxoethyl 3-(4-methoxyphenyl)acrylate] | all had inhibitory effects | can inhibit | all had inhibitory effects | all had inhibitory effects
5 | C=C[C@]1(C)C[C@@H](OC(=O)COC(=O)/C=C/c2cccc(C#N)c2)[C@]2(C)[C@H](C)CC[C@]3(CCC(=O)[C@H]32)[C@@H](C)[C@@H]1O [Compound 5, (E)-2-(((3aR,4R,5R,8S,9R,12R)-8-hydroxy-4,7,9,12-tetramethyl-3-oxo-7-vinyldecahydro-4,9a-propanocyclopenta[8]annulen-5-yl)oxy)-2-oxoethyl 3-(3-cyanophenyl)acrylate] | all had inhibitory effects | can inhibit | all had inhibitory effects | all had inhibitory effects
6 | C=C[C@]1(C)C[C@@H](OC(=O)COC(=O)/C=C/c2ccc(OC)c(OC)c2)[C@]2(C)[C@H](C)CC[C@]3(CCC(=O)[C@H]32)[C@@H](C)[C@@H]1O [Compound 7, (E)-2-(((3aR,4R,5R,8S,9R,12R)-8-hydroxy-4,7,9,12-tetramethyl-3-oxo-7-vinyldecahydro-4,9a-propanocyclopenta[8]annulen-5-yl)oxy)-2-oxoethyl 3-(3,4-dimethoxyphenyl)acrylate] | all had inhibitory effects | can inhibit | all had inhibitory effects | all had inhibitory effects
7 | C=C[C@]1(C)C[C@@H](OC(=O)COC(=O)/C=C/c2cccc(F)c2)[C@]2(C)[C@H](C)CC[C@]3(CCC(=O)[C@H]32)[C@@H](C)[C@@H]1O [Compound 8, (E)-2-(((3aR,4R,5R,8S,9R,12R)-8-hydroxy-4,7,9,12-tetramethyl-3-oxo-7-vinyldecahydro-4,9a-propanocyclopenta[8]annulen-5-yl)oxy)-2-oxoethyl 3-(3-fluorophenyl)acrylate] | all had inhibitory effects | can inhibit | all had inhibitory effects | all had inhibitory effects
8 | C=C[C@]1(C)C[C@@H](OC(=O)COC(=O)/C=C/c2cc(Br)ccc2F)[C@]2(C)[C@H](C)CC[C@]3(CCC(=O)[C@H]32)[C@@H](C)[C@@H]1O [Compound 9, (E)-2-(((3aR,4R,5R,8S,9R,12R)-8-hydroxy-4,7,9,12-tetramethyl-3-oxo-7-vinyldecahydro-4,9a-propanocyclopenta[8]annulen-5-yl)oxy)-2-oxoethyl 3-(5-bromo-2-fluorophenyl)acrylate] | all had inhibitory effects | can inhibit | all had inhibitory effects | all had inhibitory effects
9 | C=C[C@]1(C)C[C@@H](OC(=O)COC(=O)/C=C/c2ccc(N(C)C)cc2)[C@]2(C)[C@H](C)CC[C@]3(CCC(=O)[C@H]32)[C@@H](C)[C@@H]1O [Compound 10, (E)-2-(((3aR,4R,5R,8S,9R,12R)-8-hydroxy-4,7,9,12-tetramethyl-3-oxo-7-vinyldecahydro-4,9a-propanocyclopenta[8]annulen-5-yl)oxy)-2-oxoethyl 3-(4-(dimethylamino)phenyl)acrylate] | all had inhibitory effects | can inhibit | all had inhibitory effects | all had inhibitory effects
10 | C=C[C@]1(C)C[C@@H](OC(=O)COC(=O)/C=C/c2ccc(F)cc2)[C@]2(C)[C@H](C)CC[C@]3(CCC(=O)[C@H]32)[C@@H](C)[C@@H]1O [Compound 11, (E)-2-(((3aR,4R,5R,8S,9R,12R)-8-hydroxy-4,7,9,12-tetramethyl-3-oxo-7-vinyldecahydro-4,9a-propanocyclopenta[8]annulen-5-yl)oxy)-2-oxoethyl 3-(4-fluorophenyl)acrylate] | all had inhibitory effects | can inhibit | all had inhibitory effects | all had inhibitory effects
11 | C=C[C@]1(C)C[C@@H](OC(=O)COC(=O)/C=C/c2ccc(F)c(F)c2F)[C@]2(C)[C@H](C)CC[C@]3(CCC(=O)[C@H]32)[C@@H](C)[C@@H]1O [Compound 12, (E)-2-(((3aR,4R,5R,8S,9R,12R)-8-hydroxy-4,7,9,12-tetramethyl-3-oxo-7-vinyldecahydro-4,9a-propanocyclopenta[8]annulen-5-yl)oxy)-2-oxoethyl 3-(2,3,4-trifluorophenyl)acrylate] | all had inhibitory effects | can inhibit | all had inhibitory effects | all had inhibitory effects
12 | C=C[C@]1(C)C[C@@H](OC(=O)COC(=O)/C=C/c2cccc(OCc3ccccc3)c2)[C@]2(C)[C@H](C)CC[C@]3(CCC(=O)[C@H]32)[C@@H](C)[C@@H]1O [Compound 13, (E)-2-(((3aR,4R,5R,8S,9R,12R)-8-hydroxy-4,7,9,12-tetramethyl-3-oxo-7-vinyldecahydro-4,9a-propanocyclopenta[8]annulen-5-yl)oxy)-2-oxoethyl 3-(3-(benzyloxy)phenyl)acrylate] | all had inhibitory effects | can inhibit | all had inhibitory effects | all had inhibitory effects
13 | C=C[C@]1(C)C[C@@H](OC(=O)COC(=O)/C=C/c2ccc(C(F)(F)F)cc2)[C@]2(C)[C@H](C)CC[C@]3(CCC(=O)[C@H]32)[C@@H](C)[C@@H]1O [Compound 15, (E)-2-(((3aR,4R,5R,8S,9R,12R)-8-hydroxy-4,7,9,12-tetramethyl-3-oxo-7-vinyldecahydro-4,9a-propanocyclopenta[8]annulen-5-yl)oxy)-2-oxoethyl 3-(4-(trifluoromethyl)phenyl)acrylate] | all had inhibitory effects | can inhibit | all had inhibitory effects | all had inhibitory effects
14 | C=C[C@]1(C)C[C@@H](OC(=O)COC(=O)/C=C/c2cccc(C(F)(F)F)c2)[C@]2(C)[C@H](C)CC[C@]3(CCC(=O)[C@H]32)[C@@H](C)[C@@H]1O [Compound 16, (E)-2-(((3aR,4R,5R,8S,9R,12R)-8-hydroxy-4,7,9,12-tetramethyl-3-oxo-7-vinyldecahydro-4,9a-propanocyclopenta[8]annulen-5-yl)oxy)-2-oxoethyl 3-(3-(trifluoromethyl)phenyl)acrylate] | all had inhibitory effects | can inhibit | all had inhibitory effects | all had inhibitory effects
15 | C=C[C@]1(C)C[C@@H](OC(=O)COC(=O)/C=C/c2ccc(Cn3ccnc3)cc2)[C@]2(C)[C@H](C)CC[C@]3(CCC(=O)[C@H]32)[C@@H](C)[C@@H]1O [Compound 17] | all had inhibitory effects | can inhibit | all had inhibitory effects | all had inhibitory effects
